Assay results published in the supplement of paper PMC10849652.
The list shows a part of the results.

Sequences of proteins named here, by UniProt entry; tags and fusion partners are left off. A change or cut given only in a name is not applied to a line headed by its entry.
UniProt Q5MNZ6: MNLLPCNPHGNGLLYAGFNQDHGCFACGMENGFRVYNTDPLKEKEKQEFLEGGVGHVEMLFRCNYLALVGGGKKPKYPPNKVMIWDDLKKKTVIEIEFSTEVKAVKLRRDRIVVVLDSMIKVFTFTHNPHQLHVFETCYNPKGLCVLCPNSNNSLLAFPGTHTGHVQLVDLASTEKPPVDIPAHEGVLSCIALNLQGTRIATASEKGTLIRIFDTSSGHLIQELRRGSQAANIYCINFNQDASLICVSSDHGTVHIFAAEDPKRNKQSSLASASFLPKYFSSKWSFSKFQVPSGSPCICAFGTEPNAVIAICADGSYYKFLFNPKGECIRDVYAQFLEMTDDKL
UniProt Q9NW82: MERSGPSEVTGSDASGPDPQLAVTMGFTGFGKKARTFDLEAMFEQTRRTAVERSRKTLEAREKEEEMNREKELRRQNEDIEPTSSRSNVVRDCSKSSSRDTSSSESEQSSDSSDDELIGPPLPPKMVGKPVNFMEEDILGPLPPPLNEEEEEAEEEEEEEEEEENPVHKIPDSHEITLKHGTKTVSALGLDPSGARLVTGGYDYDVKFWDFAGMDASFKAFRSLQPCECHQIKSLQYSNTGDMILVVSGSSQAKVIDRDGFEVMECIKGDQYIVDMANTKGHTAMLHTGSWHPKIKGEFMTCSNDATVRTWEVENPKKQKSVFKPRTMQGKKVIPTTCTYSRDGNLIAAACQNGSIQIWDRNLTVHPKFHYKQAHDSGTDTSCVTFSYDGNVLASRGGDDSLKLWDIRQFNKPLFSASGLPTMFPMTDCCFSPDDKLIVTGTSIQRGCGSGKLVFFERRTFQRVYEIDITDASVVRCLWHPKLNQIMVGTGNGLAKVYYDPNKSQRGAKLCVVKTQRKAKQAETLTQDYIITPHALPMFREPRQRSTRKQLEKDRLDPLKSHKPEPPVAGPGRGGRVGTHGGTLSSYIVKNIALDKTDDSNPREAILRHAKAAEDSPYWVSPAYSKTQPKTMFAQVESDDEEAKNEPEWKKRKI
UniProt Q86Y07: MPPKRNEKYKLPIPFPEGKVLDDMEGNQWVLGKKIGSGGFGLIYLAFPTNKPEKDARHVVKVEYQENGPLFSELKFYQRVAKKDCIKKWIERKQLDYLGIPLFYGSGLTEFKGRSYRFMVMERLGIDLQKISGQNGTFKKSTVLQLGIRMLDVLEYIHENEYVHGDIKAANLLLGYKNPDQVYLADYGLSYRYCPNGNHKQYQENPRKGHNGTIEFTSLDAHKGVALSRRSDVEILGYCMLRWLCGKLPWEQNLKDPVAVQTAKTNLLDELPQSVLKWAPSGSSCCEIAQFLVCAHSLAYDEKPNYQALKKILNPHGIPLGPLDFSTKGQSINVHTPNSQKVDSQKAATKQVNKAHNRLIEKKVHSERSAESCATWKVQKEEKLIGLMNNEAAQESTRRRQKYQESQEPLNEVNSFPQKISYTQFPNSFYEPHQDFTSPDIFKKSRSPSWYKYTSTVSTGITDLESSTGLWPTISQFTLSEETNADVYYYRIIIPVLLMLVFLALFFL
UniProt O43516: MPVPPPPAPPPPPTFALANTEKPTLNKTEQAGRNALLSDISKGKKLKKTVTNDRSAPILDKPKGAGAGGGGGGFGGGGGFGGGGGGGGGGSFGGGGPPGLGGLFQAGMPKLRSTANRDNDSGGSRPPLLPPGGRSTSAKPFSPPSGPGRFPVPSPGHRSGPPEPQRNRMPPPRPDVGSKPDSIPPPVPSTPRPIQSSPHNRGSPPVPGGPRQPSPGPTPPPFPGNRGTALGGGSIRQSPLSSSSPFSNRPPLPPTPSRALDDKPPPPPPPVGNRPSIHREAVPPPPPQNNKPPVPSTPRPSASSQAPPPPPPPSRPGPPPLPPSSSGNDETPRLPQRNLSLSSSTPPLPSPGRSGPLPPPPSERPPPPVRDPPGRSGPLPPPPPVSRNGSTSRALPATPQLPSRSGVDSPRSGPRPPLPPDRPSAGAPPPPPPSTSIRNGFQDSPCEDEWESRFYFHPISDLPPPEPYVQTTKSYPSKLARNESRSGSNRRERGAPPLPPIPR
UniProt Q96GC9: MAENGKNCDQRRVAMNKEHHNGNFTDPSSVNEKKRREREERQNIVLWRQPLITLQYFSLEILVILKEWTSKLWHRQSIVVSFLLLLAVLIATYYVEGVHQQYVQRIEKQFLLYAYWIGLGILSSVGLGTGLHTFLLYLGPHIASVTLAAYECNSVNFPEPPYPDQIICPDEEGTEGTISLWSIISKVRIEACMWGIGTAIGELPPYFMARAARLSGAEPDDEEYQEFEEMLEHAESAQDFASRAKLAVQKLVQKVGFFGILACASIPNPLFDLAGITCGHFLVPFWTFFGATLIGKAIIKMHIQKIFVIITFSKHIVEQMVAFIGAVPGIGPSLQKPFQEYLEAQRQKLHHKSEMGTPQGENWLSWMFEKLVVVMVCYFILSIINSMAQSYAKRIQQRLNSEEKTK
UniProt A6NGB9: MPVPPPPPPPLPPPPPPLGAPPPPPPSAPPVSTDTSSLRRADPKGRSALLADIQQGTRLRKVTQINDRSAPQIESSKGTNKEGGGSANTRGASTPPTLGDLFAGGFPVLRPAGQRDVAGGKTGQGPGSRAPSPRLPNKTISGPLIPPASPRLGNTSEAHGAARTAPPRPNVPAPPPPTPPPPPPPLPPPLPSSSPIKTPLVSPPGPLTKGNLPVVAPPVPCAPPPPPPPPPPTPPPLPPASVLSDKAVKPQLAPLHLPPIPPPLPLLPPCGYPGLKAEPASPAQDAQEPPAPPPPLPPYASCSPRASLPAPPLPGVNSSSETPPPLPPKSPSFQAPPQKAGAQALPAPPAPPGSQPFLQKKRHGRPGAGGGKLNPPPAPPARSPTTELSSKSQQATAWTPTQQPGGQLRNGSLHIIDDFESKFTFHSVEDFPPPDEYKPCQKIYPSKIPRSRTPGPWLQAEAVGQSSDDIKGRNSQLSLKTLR
UniProt O00534: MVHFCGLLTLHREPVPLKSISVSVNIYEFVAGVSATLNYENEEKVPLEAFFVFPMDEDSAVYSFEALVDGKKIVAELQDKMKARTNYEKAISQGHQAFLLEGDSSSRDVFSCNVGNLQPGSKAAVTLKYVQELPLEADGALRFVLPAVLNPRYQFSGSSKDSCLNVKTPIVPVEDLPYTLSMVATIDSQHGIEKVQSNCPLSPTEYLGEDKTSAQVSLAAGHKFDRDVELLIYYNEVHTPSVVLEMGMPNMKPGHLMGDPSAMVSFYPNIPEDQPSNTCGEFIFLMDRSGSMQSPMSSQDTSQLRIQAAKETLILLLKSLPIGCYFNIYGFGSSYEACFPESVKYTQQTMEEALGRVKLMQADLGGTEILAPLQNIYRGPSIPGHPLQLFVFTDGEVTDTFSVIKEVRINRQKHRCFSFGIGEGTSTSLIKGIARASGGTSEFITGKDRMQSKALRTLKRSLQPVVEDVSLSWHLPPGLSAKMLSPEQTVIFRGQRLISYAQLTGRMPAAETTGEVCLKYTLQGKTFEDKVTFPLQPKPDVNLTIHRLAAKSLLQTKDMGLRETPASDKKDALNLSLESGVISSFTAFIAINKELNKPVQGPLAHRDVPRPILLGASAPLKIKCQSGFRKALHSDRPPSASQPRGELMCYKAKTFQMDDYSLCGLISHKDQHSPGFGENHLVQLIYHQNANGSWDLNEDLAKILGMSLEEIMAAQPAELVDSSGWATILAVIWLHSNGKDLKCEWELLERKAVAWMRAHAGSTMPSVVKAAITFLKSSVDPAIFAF
UniProt A3KMH1: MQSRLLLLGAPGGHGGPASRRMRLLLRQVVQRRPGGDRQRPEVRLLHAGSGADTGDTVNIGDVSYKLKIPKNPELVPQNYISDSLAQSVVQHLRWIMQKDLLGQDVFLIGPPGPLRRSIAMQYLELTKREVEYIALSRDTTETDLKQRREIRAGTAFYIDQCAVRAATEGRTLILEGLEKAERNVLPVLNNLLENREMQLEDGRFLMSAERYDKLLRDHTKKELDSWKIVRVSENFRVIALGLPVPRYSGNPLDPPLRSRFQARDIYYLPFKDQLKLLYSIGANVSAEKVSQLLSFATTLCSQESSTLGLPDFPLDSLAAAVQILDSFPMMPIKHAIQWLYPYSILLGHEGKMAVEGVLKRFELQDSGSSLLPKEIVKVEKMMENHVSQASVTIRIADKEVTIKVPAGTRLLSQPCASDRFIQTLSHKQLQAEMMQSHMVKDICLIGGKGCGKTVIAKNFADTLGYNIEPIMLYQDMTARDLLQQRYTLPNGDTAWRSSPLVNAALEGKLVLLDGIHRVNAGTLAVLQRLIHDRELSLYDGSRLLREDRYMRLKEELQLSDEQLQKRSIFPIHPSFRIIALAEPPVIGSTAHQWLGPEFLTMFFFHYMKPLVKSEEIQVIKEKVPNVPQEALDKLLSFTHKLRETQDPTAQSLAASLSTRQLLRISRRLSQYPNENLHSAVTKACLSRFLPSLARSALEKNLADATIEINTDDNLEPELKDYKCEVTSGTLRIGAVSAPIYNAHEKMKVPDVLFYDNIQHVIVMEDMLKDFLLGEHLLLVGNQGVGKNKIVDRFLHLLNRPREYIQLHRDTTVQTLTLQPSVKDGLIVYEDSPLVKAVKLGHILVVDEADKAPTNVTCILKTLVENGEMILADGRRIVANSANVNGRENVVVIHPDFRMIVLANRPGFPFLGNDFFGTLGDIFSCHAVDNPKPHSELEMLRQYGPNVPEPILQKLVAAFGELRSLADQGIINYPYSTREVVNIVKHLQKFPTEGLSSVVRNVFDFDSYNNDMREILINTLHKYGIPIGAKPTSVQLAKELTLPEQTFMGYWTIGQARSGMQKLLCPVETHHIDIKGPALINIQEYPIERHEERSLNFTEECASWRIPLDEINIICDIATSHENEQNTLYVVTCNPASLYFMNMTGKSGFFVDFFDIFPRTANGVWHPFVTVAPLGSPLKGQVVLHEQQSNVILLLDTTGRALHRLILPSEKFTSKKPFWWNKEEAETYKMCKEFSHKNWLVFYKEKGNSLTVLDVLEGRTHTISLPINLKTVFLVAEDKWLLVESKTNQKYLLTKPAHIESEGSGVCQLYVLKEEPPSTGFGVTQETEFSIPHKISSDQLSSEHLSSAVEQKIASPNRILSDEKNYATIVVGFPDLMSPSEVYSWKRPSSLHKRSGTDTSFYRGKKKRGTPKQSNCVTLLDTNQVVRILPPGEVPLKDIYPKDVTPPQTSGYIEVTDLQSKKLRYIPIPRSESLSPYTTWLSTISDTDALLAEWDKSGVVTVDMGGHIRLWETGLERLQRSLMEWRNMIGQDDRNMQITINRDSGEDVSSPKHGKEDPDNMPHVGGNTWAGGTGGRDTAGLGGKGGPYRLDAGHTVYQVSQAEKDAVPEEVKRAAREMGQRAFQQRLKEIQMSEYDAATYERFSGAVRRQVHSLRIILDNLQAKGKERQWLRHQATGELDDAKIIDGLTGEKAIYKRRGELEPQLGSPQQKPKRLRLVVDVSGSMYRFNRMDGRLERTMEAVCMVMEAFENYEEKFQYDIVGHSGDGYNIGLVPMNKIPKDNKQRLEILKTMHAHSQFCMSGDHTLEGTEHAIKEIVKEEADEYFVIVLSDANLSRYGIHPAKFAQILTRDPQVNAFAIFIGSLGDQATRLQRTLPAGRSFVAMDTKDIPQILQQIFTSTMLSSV
UniProt Q9H6Y2: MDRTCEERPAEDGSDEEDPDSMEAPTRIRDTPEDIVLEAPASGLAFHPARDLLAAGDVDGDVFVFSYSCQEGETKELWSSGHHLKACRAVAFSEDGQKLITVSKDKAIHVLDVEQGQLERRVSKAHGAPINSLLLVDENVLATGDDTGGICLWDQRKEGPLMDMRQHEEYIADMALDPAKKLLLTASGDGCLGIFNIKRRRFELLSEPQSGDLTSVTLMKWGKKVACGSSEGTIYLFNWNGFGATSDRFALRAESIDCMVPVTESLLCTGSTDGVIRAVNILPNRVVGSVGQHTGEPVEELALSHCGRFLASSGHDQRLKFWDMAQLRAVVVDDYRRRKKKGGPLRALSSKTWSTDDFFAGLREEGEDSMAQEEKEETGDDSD
UniProt Q9Y4P8: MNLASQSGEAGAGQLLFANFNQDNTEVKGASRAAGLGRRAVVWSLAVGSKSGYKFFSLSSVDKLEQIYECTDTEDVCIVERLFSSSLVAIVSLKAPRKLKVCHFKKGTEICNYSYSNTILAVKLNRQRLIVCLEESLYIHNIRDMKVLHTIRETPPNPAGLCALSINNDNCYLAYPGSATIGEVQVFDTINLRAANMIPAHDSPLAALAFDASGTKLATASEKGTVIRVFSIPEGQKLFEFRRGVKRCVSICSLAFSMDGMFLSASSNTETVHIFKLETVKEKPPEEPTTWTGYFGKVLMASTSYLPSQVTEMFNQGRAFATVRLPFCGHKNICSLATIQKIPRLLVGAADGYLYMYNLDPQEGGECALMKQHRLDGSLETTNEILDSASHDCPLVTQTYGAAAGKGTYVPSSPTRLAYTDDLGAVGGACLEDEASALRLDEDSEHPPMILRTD

Assays:
Assay in all cases: log2 fold change, soluble protein after heating vs DMSO (PISA); higher = thermal stabilisation; K562 cells, 10 uM, 30 min; active = over 0.2 and 3.5 SD of the protein, either way, in both replicates (recomputed)
[1] = compound: CN1CCN(CCOc2cc(OC3CCOCC3)c3c(Nc4c(Cl)ccc5c4OCO5)ncnc3c2)CC1 [saracatinib]
Outline: (§1)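 K562 cells at 2×10^6 cells/mL were exposed to 10 μM compound for 30 min, then aliquots were heated for 3 min across 48°C-58°C, pooled, and extracted in PBS containing 0.5% NP-40 at 4°C. The supernatant after 21,000xg for 90 min was taken as soluble protein and measured by TMTpro 16plex LC-MS/MS with channel sums equalised. Thermal stability is reported relative to control samples, with values from duplicates. Fold changes are given on a log2 scale.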

[2] = compound: CN1CCN(c2nc(C3=C(c4c[nH]c5ccccc45)C(=O)NC3=O)c3ccccc3n2)CC1 [sotrastaurin]
Outline: as §1

[3] = compound: CN1CC[C@H](c2c(O)cc(O)c3c(=O)cc(-c4ccccc4Cl)oc23)[C@H](O)C1 [alvocidib]
Outline: as §1

[4] = compound: CN1CCc2c(c3ccccc3n2Cc2ccc(C(=O)NO)cc2)C1 [Tubastatin A]
Outline: as §1

[5] = compound: CNC(=O)C1=CC=CC=C1NC2=NC(=NC=C2Cl)NC3=C(C=C(C=C3)N4CCOCC4)OC
Outline: as §1

[6] = compound: CNC(=O)c1ccc(Nc2ncc(C(F)(F)F)c(NCc3nccnc3N(C)S(C)(=O)=O)n2)cc1 [defactinib]
Outline: as §1

[7] = compound: CNCc1ccc(-c2[nH]c3cc(F)cc4c3c2CCNC4=O)cc1 [rucaparib]
Outline: as §1

[8] = compound: CNc1nc(-c2ccc3c(N)n[nH]c3c2)cc(N2C[C@@H](C(=O)NC3CCCCC3)CC[C@H]2C)n1
Outline: as §1

[9] = compound: COC(=O)N[C@@H](C)CNc1nccc(-c2cn(C(C)C)nc2-c2cc(Cl)cc(NS(C)(=O)=O)c2F)n1 [encorafenib]
Outline: as §1

[10] = compound: COC(=O)[C@H](CCSC)NC(=O)C1=C(C=C(C=C1)NC[C@H](CS)N)C2=CC=CC=C2
Outline: as §1

Target | log2 fold change [1] | log2 fold change [2] | log2 fold change [3] | log2 fold change [4] | log2 fold change [5] | log2 fold change [6] | log2 fold change [7] | log2 fold change [8] | log2 fold change [9] | log2 fold change [10]
WDR45B (UniProt Q5MNZ6) | inactive: 0.067 | inactive: -0.076 | inactive: -0.014 | inactive: -0.044 | inactive: -0.033 | inactive: -0.03 | inactive: -0.09 | inactive: 0.06 | inactive: 0.048 | inactive: -0.054
WDR70 (UniProt Q9NW82) | inactive: 0.001 | inactive: -0.007 | inactive: -0.038 | inactive: 0.008 | inactive: 0.03 | inactive: -0.004 | inactive: -0.024 | inactive: -0.016 | inactive: -0.019 | inactive: 0
VRK2 (UniProt Q86Y07) | inactive: -0.036 | inactive: 0.075 | active: 0.4 | inactive: 0.014 | inactive: -0.102 | inactive: 0.106 | inactive: -0.039 | inactive: -0.017 | inactive: -0.001 | inactive: -0.092
WRAP73 (UniProt Q9P2S5) | inactive: 0.018 | inactive: -0.033 | inactive: 0.011 | inactive: 0.005 | inactive: 0.016 | inactive: -0.037 | inactive: 0.011 | inactive: -0.053 | inactive: -0.002 | inactive: -0.028
VPS35 (UniProt Q96QK1) | inactive: 0.014 | inactive: -0.01 | inactive: -0.047 | inactive: -0.008 | inactive: -0.003 | inactive: -0.041 | inactive: -0.067 | inactive: -0.017 | inactive: 0.015 | inactive: 0.016
WIPF1 isoform 3 (UniProt O43516) | inactive: 0.234 | inactive: 0.206 | inactive: 0.118 | inactive: 0.351 | inactive: -0.083 | inactive: -0.033 | inactive: -0.072 | inactive: -0.136 | inactive: -0.075 | inactive: 0.141
VMP1 (UniProt Q96GC9) | inactive: 0.084 | inactive: 0.25 | inactive: -0.015 | inactive: -0.018 | inactive: 0.009 | inactive: -0.033 | inactive: 0 | inactive: -0.011 | inactive: 0.008 | inactive: -0.005
WDR1 (UniProt O75083) | inactive: 0 | inactive: -0.019 | inactive: -0.067 | inactive: -0.003 | inactive: 0.027 | inactive: -0.037 | inactive: -0.023 | inactive: 0.017 | inactive: 0.029 | inactive: -0.036
VPS13A (UniProt Q96RL7) | inactive: 0.07 | inactive: 0.05 | inactive: 0.023 | inactive: -0.015 | inactive: -0.014 | inactive: -0.007 | inactive: -0.029 | inactive: -0.044 | inactive: 0.01 | inactive: -0.021
WIPF3 (UniProt A6NGB9) | inactive: 0.101 | inactive: -0.002 | inactive: -0.03 | inactive: 0.016 | inactive: -0.126 | inactive: 0.029 | inactive: -0.007 | inactive: 0 | inactive: -0.012 | inactive: 0.032
VWA5A (UniProt O00534) | inactive: 0.09 | inactive: 0.003 | inactive: -0.138 | inactive: 0.054 | inactive: 0.024 | inactive: -0.117 | inactive: -0.029 | inactive: 0.02 | inactive: -0.06 | inactive: -0.068
VWDE (UniProt Q8N2E2) | inactive: -0.114 | inactive: 0.018 | inactive: 0 | inactive: 0.068 | inactive: -0.016 | inactive: 0.032 | inactive: 0.033 | inactive: 0.025 | inactive: 0.028 | inactive: 0.028
WDR26, A0A499FIZ0 | inactive: 0.001 | inactive: -0.045 | inactive: 0.027 | inactive: -0.012 | inactive: 0.063 | inactive: -0.018 | inactive: -0.011 | inactive: -0.038 | inactive: 0.025 | inactive: 0.013
WDFY1 (UniProt Q8IWB7) | inactive: 0.151 | inactive: 0.004 | inactive: 0.049 | inactive: -0.073 | inactive: -0.004 | inactive: -0.019 | inactive: -0.003 | inactive: -0.044 | inactive: -0.036 | inactive: 0.074
VWA8 (UniProt A3KMH1) | inactive: -0.012 | inactive: -0.003 |  | inactive: 0.072 | inactive: 0.006 | inactive: -0.017 | inactive: 0.008 | inactive: -0.013 | inactive: 0.003 | inactive: -0.049
VPS13C (UniProt Q709C8) | inactive: 0.029 | inactive: 0.003 | inactive: -0.027 | inactive: -0.048 | inactive: -0.02 | inactive: -0.019 | inactive: -0.019 | inactive: -0.063 | inactive: 0.019 | inactive: 0.006

Target | log2 fold change [1] | log2 fold change [2] | log2 fold change [3] | log2 fold change [4] | log2 fold change [5] | log2 fold change [6] | log2 fold change [7] | log2 fold change [8] | log2 fold change [9] | log2 fold change [10]
WDR12 (UniProt Q9GZL7) | inactive: 0.051 | inactive: 0.006 | inactive: -0.045 | inactive: -0.007 | inactive: -0.029 | inactive: -0.021 | inactive: -0.05 | inactive: -0.021 | inactive: 0.013 | inactive: 0.022
VKORC1L1, A0A3B3ISV4 | inactive: 0.015 | inactive: 0.004 | inactive: -0.037 | inactive: -0.134 | inactive: 0.073 | inactive: 0.003 | inactive: 0.016 | inactive: -0.032 | inactive: -0.016 | inactive: 0.056
VPS33B (UniProt Q9H267) | inactive: -0.088 | inactive: -0.117 |  | inactive: 0.039 | inactive: -0.071 | inactive: -0.078 | inactive: 0.196 | inactive: 0.052 | inactive: 0.111 | inactive: -0.058
WDR89 (UniProt Q96FK6) | inactive: 0.081 | inactive: 0.013 | inactive: -0.036 | inactive: -0.021 | inactive: -0.048 | inactive: -0.006 | inactive: 0.038 | inactive: -0.043 | inactive: -0.036 | inactive: 0.095
VPS29 isoform 2 (UniProt Q9UBQ0) | inactive: 0.052 | inactive: 0.025 | inactive: 0.075 | inactive: -0.039 | inactive: -0.02 | inactive: 0.022 | inactive: -0.06 | inactive: -0.021 | inactive: -0.003 | inactive: 0.044
VRK1 (UniProt Q99986) | inactive: -0.057 | inactive: 0.152 |  | inactive: 0.07 | inactive: 0.05 | inactive: -0.041 | inactive: 0.048 | inactive: 0.108 | inactive: 0.043 | inactive: -0.04
VPS18 (UniProt Q9P253) | inactive: -0.034 | inactive: -0.156 |  | inactive: -0.052 | inactive: -0.003 | inactive: -0.068 | inactive: 0.099 | inactive: 0.029 | inactive: 0.031 | inactive: -0.076
WDR47 (UniProt O94967) | inactive: -0.019 | inactive: -0.008 |  | inactive: 0.039 | inactive: 0.035 | inactive: 0.052 | inactive: -0.071 | inactive: -0.041 | inactive: 0.045 | inactive: -0.087
WDR55 (UniProt Q9H6Y2) | inactive: 0.04 | inactive: 0.037 | inactive: 0.026 | inactive: -0.025 | inactive: -0.019 | inactive: -0.079 | inactive: 0.047 | inactive: -0.033 | inactive: 0.014 | inactive: 0.027
VIM (UniProt P08670) | inactive: -0.037 | inactive: -0.153 | inactive: 0.106 | inactive: -0.046 | inactive: -0.01 | inactive: 0.162 | inactive: 0.026 | inactive: -0.059 | inactive: 0.187 | inactive: 0.04
WIPI1 (UniProt Q5MNZ9) | inactive: 0.07 | inactive: 0.011 | inactive: -0.056 | inactive: 0.012 | inactive: -0.046 |  | inactive: 0.029 | inactive: 0.01 | inactive: -0.02 | 
WIPI2 (UniProt Q9Y4P8) | inactive: 0.066 | inactive: 0.012 | inactive: -0.054 | inactive: 0.025 | inactive: 0.006 | inactive: 0.007 | inactive: 0.008 | inactive: 0.014 | inactive: 0.061 | inactive: -0.003
WDR77 (UniProt Q9BQA1) | inactive: 0.061 | inactive: 0.033 | inactive: 0.19 | inactive: -0.034 | inactive: 0.065 | inactive: -0.038 | inactive: 0.038 | inactive: -0.015 | inactive: -0.01 | inactive: -0.003
WDR46, A0A0G2JJL1 | inactive: 0.065 | inactive: 0.052 |  | inactive: -0.095 | inactive: 0.007 | inactive: 0.408 | inactive: 0.293 | inactive: 0.119 | inactive: 0.044 | inactive: -0.138
WASHC4 (UniProt Q2M389) | inactive: 0.072 | inactive: -0.101 | inactive: -0.071 | inactive: 0.109 | inactive: 0.02 | inactive: -0.024 | inactive: 0.221 | inactive: 0.078 | inactive: 0.117 | inactive: -0.043

2 entries drawn at random from the list so far:
Target | log2 fold change [1] | log2 fold change [2] | log2 fold change [3] | log2 fold change [4] | log2 fold change [5] | log2 fold change [6] | log2 fold change [7] | log2 fold change [8] | log2 fold change [9] | log2 fold change [10]
WIPI1 (UniProt Q5MNZ9) | inactive: 0.07 | inactive: 0.011 | inactive: -0.056 | inactive: 0.012 | inactive: -0.046 |  | inactive: 0.029 | inactive: 0.01 | inactive: -0.02 | 
VIM (UniProt P08670) | inactive: -0.037 | inactive: -0.153 | inactive: 0.106 | inactive: -0.046 | inactive: -0.01 | inactive: 0.162 | inactive: 0.026 | inactive: -0.059 | inactive: 0.187 | inactive: 0.04
